What all share (assay): two-hybrid; Matchmaker Gold Yeast Two-Hybrid System; pGBKT7 baits and pGADT7 preys co-transformed into Y2HGold cells; transformants from SD-Leu-Trp restreaked onto SD-Leu-Trp-His-Ade plates
The target of test [1] is FERM domain of FRM-3 (C. elegans).
The target of test [2] is FRM-3 (FRM-3/FARP), full length (C. elegans).
The target of test [3] is LIN-2A lacking the PDZ domain (C. elegans) (UniProt P54936).
Test [4] deals with LIN-2A lacking the SH3 domain (C. elegans) (UniProt P54936).

These are yes or no findings as the source states them, for the method shown. For part of these data: Binding calls can cover weak binding; strength is not graded here.

B1: LIN-2A (LIN-2/CASK, long isoform), full length (protein, UniProt P54936-1 1-961)
chain: MRELDPDESNLLLDEQLSIRDVIEQGPFSNVYRILHGPSNRKFLLRSINLNLFRQHTGLGFEEIDEEIRICQNLQHPYICRLEKTINSVHYRHIIFENMEGNDICFEIVQRASNGFVFSEYVVSHYTRQLLDALDYCHTRKIVHRDVRPHNLVLASKDTSAPLKLCGFGVAKDLSEIGGSMACGRVGVPQFMAPEIVRKDRVSCSSDIWSSGVVLFLLLAGRLPFSGSTSDIYERIMQTDVDVDGYMPNISESARNLVRRMLNADPSKRISAKEALNHEWIRDKEHMASRKHMNDVIDQMRRYNESRKLKSNVLSAVNSGRFDETTPRQDTPQTAFVDGSSPGGDCCHRGESSSNDAAEPPADKDLSGAYKVLGSLDAINSLLDPNSYKPGSTTFQKIHDDGSVRNLLRLYDKIKALPCEPVVTEVDTSTLRKETLNQIDGLLGPSPEALELRQLLNSPHLASCVQALDVVVCEIRDPKNEASGSGDKEGNCVSSDPAPAYLNGGVLPLGAQRAGTSFEHFNQSAVHTSYDEEEEELYDCMSRLRLVQFQKDTQEPMGITLKVNEDGRCFVARIMHGGMIHRQATLHVGDEIREINGMSVANRSVESLQEMLRDARGQVTFKIIPSYRSAPPACEIFVRAQFDYEPSQDDLIPCPQAGIPFKTGDILQVISKDDHNWWQARFVSSFPSIGNSSNAQRSNQQQVAGLIPSPELQEWRTACLAMERSKNTCNTHCMWFNKKKKYYTTKYLQKHSALFDQLDLVTYEEVMRLSQYRRKTLVLLGAHGVGRRHIKNTLIHRHPNRFAYPIPHTTRPPRKDEVDGKHYYFVTNEQMMADIQNNEYLEYGTHEESMYGTKLETIRNIHKSGKIAILDVEPQALKVLRTAEYSPFVVFIAAPNLQGMQDPDGSLEKLLNESDVLRQAFGHLFDFIITNSDIDDTIAQLERLVEKLPAYPQWLPVTWVY
Turning to B1, the binding entry in test [1] and in test [2] was “binds” each time.

B2: ACR-16 second cytoplasmic loop, TM3-4 (aa315-472) (domain or fragment, UniProt P48180 315-472)
chain: NLHYRTPETHDMGPWTRNLLLYWIPWILRMKRPGHNLTYASLPSLFSTKPNRHSESLIRNIKDNEHSLSRANSFDADCRLNQYIMTQSVSNGLTSLGSIPSTMISSNGTTTDVSQQATLLILHRIYHELKIVTKRMIEGDKEEQACNNWKFAAMVVDR
With B2, the binding result is on record as “binds” in test [3], “no binding” in test [4] and “no binding” in test [2].

B3: LIN-2A PDZ domain (domain or fragment, UniProt P54936-1 545-620)
chain: RLVQFQKDTQEPMGITLKVNEDGRCFVARIMHGGMIHRQATLHVGDEIREINGMSVANRSVESLQEMLRDARGQVT
For B3, the binding result in test [1] and in test [2] was “no binding” each time.

B4: UNC-29 second cytoplasmic loop, TM3-4 (aa318-445) (domain or fragment, UniProt P48181 318-445)
chain: YFRGPRTHRMPQWVRVVFLQFLPKLVCMKRPKSASERSAVRSGMAQLPGVGQFTLSPSAHHPLCPSADDRTTTIRNTASNETSAYYPLSTDALRAIDAIEYITEHLKRDEQHKSFRDDWKYVAMIIDR
Consider B4, for which the binding result in test [3] is given as “binds”; in test [4], “no binding”; in test [2] it was “no binding”.

B5: LIN-2A SH3 domain (domain or fragment, UniProt P54936-1 633-717)
chain: ACEIFVRAQFDYEPSQDDLIPCPQAGIPFKTGDILQVISKDDHNWWQARFVSSFPSIGNSSNAQRSNQQQVAGLIPSPELQEWRT
Consider B5, for which the binding result in test [1] and in test [2] was “no binding” throughout.

Source of the values: paper PMC9632837.
